Reference: paper PMC6131148

By UniProt entry, the sequences of proteins in these tests, tags left out.
UniProt Q86TM6: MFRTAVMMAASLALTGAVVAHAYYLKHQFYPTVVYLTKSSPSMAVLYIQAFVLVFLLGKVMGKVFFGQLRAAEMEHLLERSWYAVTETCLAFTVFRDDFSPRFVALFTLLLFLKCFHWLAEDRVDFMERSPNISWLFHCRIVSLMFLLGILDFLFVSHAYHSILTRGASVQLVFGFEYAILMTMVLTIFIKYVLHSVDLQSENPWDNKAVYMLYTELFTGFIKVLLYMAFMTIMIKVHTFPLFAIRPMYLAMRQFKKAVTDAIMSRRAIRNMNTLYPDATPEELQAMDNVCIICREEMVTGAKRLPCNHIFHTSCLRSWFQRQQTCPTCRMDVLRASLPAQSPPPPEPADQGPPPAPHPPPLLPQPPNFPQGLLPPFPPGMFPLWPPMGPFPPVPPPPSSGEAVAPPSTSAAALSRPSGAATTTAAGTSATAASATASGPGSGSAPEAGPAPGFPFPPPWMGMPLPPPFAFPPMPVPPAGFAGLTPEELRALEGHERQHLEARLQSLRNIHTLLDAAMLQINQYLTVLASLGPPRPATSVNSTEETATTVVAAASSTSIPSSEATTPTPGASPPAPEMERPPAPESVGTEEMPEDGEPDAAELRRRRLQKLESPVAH

B1: ENTPD5, endogenous in HepG2 cells (enzyme, UniProt O75356 25-428)
chain: NQQTWFEGIFLSSMCPINVSASTLYGIMFDAGSTGTRIHVYTFVQKMPGQLPILEGEVFDSVKPGLSAFVDQPKQGAETVQGLLEVAKDSIPRSHWKKTPVVLKATAGLRLLPEHKAKALLFEVKEIFRKSPFLVPKGSVSIMDGSDEGILAWVTVNFLTGQLHGHRQETVGTLDLGGASTQITFLPQFEKTLEQTPRGYLTSFEMFNSTYKLYTHSYLGFGLKAARLATLGALETEGTDGHTFRSACLPRWLEAEWIFGGVKYQYGGNQEGEVGFEPCYAEVLRVVRGKLHQPEEVQRGSFYAFSYYYDRAVDTDMIDYEKGGILKVEDFERKAREVCDNLENFTSGSPFLCMDLSYITALLKDGFGFADSTVLQLTKKVNNIETGWALGATFHLLQSLGISH
B2: CPT2, endogenous in HepG2 cells (enzyme, UniProt P23786 26-658)
chain: SAGSGPGQYLQRSIVPTMHYQDSLPRLPIPKLEDTIRRYLSAQKPLLNDGQFRKTEQFCKSFENGIGKELHEQLVALDKQNKHTSYISGPWFDMYLSARDSVVLNFNPFMAFNPDPKSEYNDQLTRATNMTVSAIRFLKTLRAGLLEPEVFHLNPAKSDTITFKRLIRFVPSSLSWYGAYLVNAYPLDMSQYFRLFNSTRLPKPSRDELFTDDKARHLLVLRKGNFYIFDVLDQDGNIVSPSEIQAHLKYILSDSSPAPEFPLAYLTSENRDIWAELRQKLMSSGNEESLRKVDSAVFCLCLDDFPIKDLVHLSHNMLHGDGTNRWFDKSFNLIIAKDGSTAVHFEHSWGDGVAVLRFFNEVFKDSTQTPAVTPQSQPATTDSTVTVQKLNFELTDALKTGITAAKEKFDATMKTLTIDCVQFQRGGKEFLKKQKLSPDAVAQLAFQMAFLRQYGQTVATYESCSTAAFKHGRTETIRPASVYTKRCSEAFVREPSRHSAGELQQMMVECSKYHGQLTKEAAMGQGFDRHLFALRHLAAAKGIILPELYLDPAYGQINHNVLSTSTLSSPAVNLGGFAPVVSDGFGVGYAVHDNWIGCNVSSYPGRNAREFLQCVEKALEDMFDALEGKSIKS
B3: RMND1, endogenous in HepG2 cells (protein, UniProt Q9NWS8 13-449)
chain: HHILSKAHQCRRIGHLMLKPLKEFENTTCSTLTIRQSLDLFLPDKTASGLNKSQILEMNQKKSDTSMLSPLNAARCQDEKAHLPTMKSFGTHRRVTHKPNLLGSKWFIKILKRHFSSVSTETFVPKQDFPQVKRPLKASRTRQPSRTNLPVLSVNEDLMHCTAFATADEYHLGNLSQDLASHGYVEVTSLPRDAANILVMGVENSAKEGDPGTIFFFREGAAVFWNVKDKTMKHVMKVLEKHEIQPYEIALVHWENEELNYIKIEGQSKLHRGEIKLNSELDLDDAILEKFAFSNALCLSVKLAIWEASLDKFIESIQSIPEALKAGKKVKLSHEEVMQKIGELFALRHRINLSSDFLITPDFYWDRENLEGLYDKTCQFLSIGRRVKVMNEKLQHCMELTDLMRNHLNEKRALRLEWMIVILITIEVMFELGRVFF
B4: HSD17B4, endogenous in HepG2 cells (enzyme, UniProt P51659 1-736)
chain: MGSPLRFDGRVVLVTGAGAGLGRAYALAFAERGALVVVNDLGGDFKGVGKGSLAADKVVEEIRRRGGKAVANYDSVEEGEKVVKTALDAFGRIDVVVNNAGILRDRSFARISDEDWDIIHRVHLRGSFQVTRAAWEHMKKQKYGRIIMTSSASGIYGNFGQANYSAAKLGLLGLANSLAIEGRKSNIHCNTIAPNAGSRMTQTVMPEDLVEALKPEYVAPLVLWLCHESCEENGGLFEVGAGWIGKLRWERTLGAIVRQKNHPMTPEAVKANWKKICDFENASKPQSIQESTGSIIEVLSKIDSEGGVSANHTSRATSTATSGFAGAIGQKLPPFSYAYTELEAIMYALGVGASIKDPKDLKFIYEGSSDFSCLPTFGVIIGQKSMMGGGLAEIPGLSINFAKVLHGEQYLELYKPLPRAGKLKCEAVVADVLDKGSGVVIIMDVYSYSEKELICHNQFSLFLVGSGGFGGKRTSDKVKVAVAIPNRPPDAVLTDTTSLNQAALYRLSGDWNPLHIDPNFASLAGFDKPILHGLCTFGFSARRVLQQFADNDVSRFKAIKARFAKPVYPGQTLQTEMWKEGNRIHFQTKVQETGDIVISNAYVDLAPTSGTSAKTPSEGGKLQSTFVFEEIGRRLKDIGPEVVKKVNAVFEWHITKGGNIGAKWTIDLKSGSGKVYQGPAKGAADTTIILSDEDFMEVVLGKLDPQKAFFSGRLKARGNIMLSQKLQMILKDYAKL
B5: MLYCD, endogenous in HepG2 cells (enzyme, UniProt O95822 40-493)
chain: MDELLRRAVPPTPAYELREKTPAPAEGQCADFVSFYGGLAETAQRAELLGRLARGFGVDHGQVAEQSAGVLHLRQQQREAAVLLQAEDRLRYALVPRYRGLFHHISKLDGGVRFLVQLRADLLEAQALKLVEGPDVREMNGVLKGMLSEWFSSGFLNLERVTWHSPCEVLQKISEAEAVHPVKNWMDMKRRVGPYRRCYFFSHCSTPGEPLVVLHVALTGDISSNIQAIVKEHPPSETEEKNKITAAIFYSISLTQQGLQGVELGTFLIKRVVKELQREFPHLGVFSSLSPIPGFTKWLLGLLNSQTKEHGRNELFTDSECKEISEITGGPINETLKLLLSSSEWVQSEKLVRALQTPLMRLCAWYLYGEKHRGYALNPVANFHLQNGAVLWRINWMADVSLRGITGSCGLMANYRYFLEETGPNSTSYLGSKIIKASEQVLSLVAQFQKNSKL
B6: AKR1C1, endogenous in HepG2 cells (enzyme, UniProt Q04828 1-323)
chain: MDSKYQCVKLNDGHFMPVLGFGTYAPAEVPKSKALEATKLAIEAGFRHIDSAHLYNNEEQVGLAIRSKIADGSVKREDIFYTSKLWCNSHRPELVRPALERSLKNLQLDYVDLYLIHFPVSVKPGEEVIPKDENGKILFDTVDLCATWEAVEKCKDAGLAKSIGVSNFNRRQLEMILNKPGLKYKPVCNQVECHPYFNQRKLLDFCKSKDIVLVAYSALGSHREEPWVDPNSPVLLEDPVLCALAKKHKRTPALIALRYQLQRGVVVLAKSYNEQRIRQNVQVFEFQLTSEEMKAIDGLNRNVRYLTLDIFAGPPNYPFSDEY

Target: HMG-CoA reductase degradation protein 1 (HRD1), endogenous in HepG2 cells (human (endogenous in HepG2)) (UniProt Q86TM6)
Assay: affinity purification with mass spectrometry; endogenous HRD1 precipitated with anti-HRD1 (SYVN1) antibody from HepG2 lysate in NETN buffer (20 mM Tris-Cl pH 8.0, 150 mM NaCl, 1 mM EDTA, 0.5% NP-40), Protein A Sepharose; normal rabbit IgG as control; three independent experiments

binding	Binder
binds	B1
binds	B2
binds	B3
binds	B4
binds	B5
binds	B6

No constants are given. Whether binding was seen depends on the method and setting. In cells and extracts the contact can be indirect. A yes stands for co-enrichment or nearness to the bait. Other partners may have been found.
